These are yes or no findings as the source states them, for the method shown.

Chains of the proteins cited; added tags and fusions are not shown. Lines headed by an entry give the natural chain unless they say otherwise; changes in a name come on top.
UniProt P0AG30: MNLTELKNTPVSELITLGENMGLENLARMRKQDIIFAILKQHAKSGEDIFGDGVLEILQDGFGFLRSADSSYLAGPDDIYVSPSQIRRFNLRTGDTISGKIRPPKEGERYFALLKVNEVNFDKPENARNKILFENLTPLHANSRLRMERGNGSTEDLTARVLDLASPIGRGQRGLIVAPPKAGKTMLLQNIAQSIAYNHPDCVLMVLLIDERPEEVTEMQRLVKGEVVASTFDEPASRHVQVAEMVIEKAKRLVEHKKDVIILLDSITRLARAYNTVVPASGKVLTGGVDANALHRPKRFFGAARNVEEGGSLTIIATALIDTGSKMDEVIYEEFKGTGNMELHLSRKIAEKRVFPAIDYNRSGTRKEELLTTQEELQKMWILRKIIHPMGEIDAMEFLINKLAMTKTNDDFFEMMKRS
UniProt P05460: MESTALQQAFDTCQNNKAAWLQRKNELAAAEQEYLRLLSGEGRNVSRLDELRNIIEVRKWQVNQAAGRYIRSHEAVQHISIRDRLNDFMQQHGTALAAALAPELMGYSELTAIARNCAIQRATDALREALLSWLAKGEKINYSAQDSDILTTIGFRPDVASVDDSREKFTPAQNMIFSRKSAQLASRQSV

Data on 1 substance can be found in publication PMC11718236, “The Psu protein of phage satellite P4 inhibits transcription termination factor ρ by forced hyper-oligomerization” (Nature Communications, 2023).

This experiment addresses transcription termination factor ρ P167L variant, non-tagged, purified (E. coli) (UniProt P0AG30). Kind of experiment: condition: 1200 pmol Psu dimer with 300 pmol ρ^P167L hexamer in 50 µl; SEC; analytical SEC on Superose 6 increase 3.2/300; 300 pmol ρ^wt/P167L hexamer and 1200 pmol Psu dimer (wt or variants) in 50 µl; 10 mM TRIS-HCl pH 7.5, 150 mM NaCl, 5 mM MgCl2, 1 mM DTT; without or with 2 mM ATP or analogs; 32 °C for 10 min before loading; fractions by SDS-PAGE; both purified.

For the substance “Psu D49R variant, purified (from UniProt P05460 1-190)”, the binding entry was “no binding”.
